Measured values reported in PubChem BioAssay AID1347075 (National Center for Advancing Translational Sciences (NCATS), 2019).
The campaign covered roughly 400,000 compounds. About 5,500 (1.4%) were called active. Inconclusive results, whose numbers are uncertain, are shown with a selection of clear calls. The call rests on the fitted dose curve; in most records, active means well fitted cell-killing curve with a large enough effect; inconclusive means small, poorly fitted or top-dose-only effect, or effect the other way; inactive means flat fitted curve, though single readings scatter. Potencies beside an inconclusive call are fits to weak or partial responses and may not hold up.

Test: qHTS assay for MDR1-selective chemotherapeutics: Primary screen using the parental adenocarcinoma cell KB-3-1; further: nearly all actives have a fitted effect of over 60% in size
Conditions: KB-3-1 viability, CellTiter-Glo ATP luminescence, 72 h; activity change, negative = cytotoxic: at 46.1 µM (top of the series)
Summary of the method: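 Cells are dispensed, compounds pinned in, plates held at 37 °C for 72 h, then CellTiter-Glo is added and luminescence read after 10 minutes. Cell line: parental KB-3-1 in phenol-red-free DMEM, 10% FBS.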
On the % scale 0 is the no-effect control and ±100 the full control effect; potency means the concentration at half of the fitted maximal effect.

SMILES	Potency	activity change, negative = cytotoxic
CN(C)c1ccc(/C=N/N=C2/NC(=O)/C(=C/c3ccc([N+](=O)[O-])cc3)S2)cc1	inconclusive: 29.1 µM [cytotoxic, single point]	–
Cc1cc(C)cc(NC(=O)CCn2c(=O)c3cccn3c3ccccc32)c1	active: 9.2 µM	–
CC1(C(=O)NS(=O)(=O)c2cccs2)CCN1C(=O)Cc1ccc(Cl)cc1Cl (stereo unspecified)	inactive	–
CCCCn1c2c(c(=N)c3c1CCC3)CCC2	active: 4.11 µM	–
O=C(CSc1nc2ccccc2c2c1CCCC2)N1CCOCC1	inconclusive: 2.59 µM [cytotoxic, partial curve, poor fit]	–
CN1C(=O)C(O)(CC(=O)/C=C/c2ccco2)c2ccccc21 (stereo unspecified)	–	inconclusive: 32.8%
COc1cccc(C2CC(c3c(-c4ccccc4)c4cc(Cl)ccc4[nH]c3=O)=NN2S(C)(=O)=O)c1OC (stereo unspecified)	inconclusive: 25.9 µM [cytotoxic, single point]	–
O=C(CSc1nc(=O)n(Cc2ccco2)c2c1CCC2)NCc1ccc(Cl)cc1	inconclusive: 29.1 µM [cytotoxic, single point]	–
CC1(C)Cc2nc3sc4c(SCC(=O)NCc5ccco5)ncnc4c3cc2CO1	active: 4.61 µM	–
CCCCC(c1nnnn1CC1CCCO1)N1CCN(Cc2ccccc2)CC1 (stereo unspecified)	inactive	–
O=C(Nc1ccccc1)c1ccc(Nc2c([N+](=O)[O-])cc([N+](=O)[O-])c3ccccc23)cc1	inconclusive: 16.4 µM [cytotoxic, single point]	–
Cc1cc(NC(=O)Nc2nnc(N3CCCCC3)s2)ccc1Br	inactive	–
COc1ccc2c(c1)sc1nc(-c3ccccc3)cn12	active: 2.31 µM	–
c1cncc(-c2nc(NCc3ccc4c(c3)OCO4)c3ccccc3n2)c1	inconclusive: 29.1 µM [cytotoxic, single point]	–
Cc1cccc(NC(=O)c2cc(-c3ccccn3)nc3ccccc23)c1C	inconclusive: 20.6 µM [cytotoxic, single point]	–
Cc1ccccc1OCc1nc2ccccc2c(=O)n1/N=C/c1cn[nH]c1-c1ccc(Br)cc1	inconclusive: 29.1 µM [cytotoxic, single point]	–
COc1ccc(NC(=O)c2cc(-c3ccco3)nc3ccccc23)cc1	inactive	–
COc1ccc(C(=O)c2c(C)oc3cc([N+](=O)[O-])c(O)c([N+](=O)[O-])c23)cc1	inconclusive: 25.9 µM [cytotoxic, partial curve, poor fit]	–
O=C1CC(NS(=O)(=O)c2cccnc2)CN1c1ccc(Cl)cc1 (stereo unspecified)	inactive	–
Cc1ccc(C(=O)N2CCCN(c3nc4cc5c(cc4cc3C#N)OCO5)CC2)cc1	inconclusive: 29.1 µM [cytotoxic, single point]	–
COc1cccc(CNC(=O)CN2C(=O)CCSc3ccc(S(=O)(=O)N4CCCC4)cc32)c1	inactive	–
CN1CCCN(C2C3CC4CC(C3)CC2C4)CC1 (stereo unspecified)	inconclusive: 18.4 µM [cytotoxic, single point]	–
CC/C(=N\NC(=O)c1ccoc1C)c1ccc(C)o1	inactive	–
COc1ccc(CNCc2cccc(Oc3ccccc3)c2)cc1	inactive	–

SMILES	Potency	activity change, negative = cytotoxic
COc1ccc(NC(=O)c2c(C)oc3ccc(O)c(CN4CCCCCC4)c23)cc1	inactive	–
CCOc1ccc(Br)cc1S(=O)(=O)Nc1cccc(-c2ccc(OC)nn2)c1	inconclusive: 16.4 µM [cytotoxic, partial curve, poor fit]	–
Cn1cc(S(=O)(=O)N2CCOCC2)cc1C(=O)NCc1ccccc1Cl	inactive	–
COC1=C(N)C(=O)c2nc(-c3nc(C(=O)O)c(C)c(-c4ccc(OC)c(OC)c4O)c3N)ccc2C1=O	active: 0.146 µM	–
Cc1cc(CN2CCN(CC(=O)Nc3cc(C(F)(F)F)ccc3-n3cncn3)CC2)no1	inactive	–
CSc1ccc(-c2cc(=O)c3ccccc3o2)cc1	inactive	–
Cc1ccc(Cl)cc1N1CCN(C(=O)c2ccc3c(c2)N(Cc2ccccc2)CCS3)CC1	inconclusive: 16.4 µM [cytotoxic, single point]	–
CCn1nnc2cc(C(=O)Nc3ccc(OC)cc3)ccc21	inactive	–
COc1ccc(-n2c(=O)c3c4c(sc3n(Cc3ccc(C(C)(C)C)cc3)c2=O)CCC4)c(OC)c1	inactive	–
Cc1nc(SCC(=O)Nc2nc3ccccc3s2)c(C#N)c(C)c1C	inconclusive: 25.9 µM [cytotoxic, single point]	–
Cc1cc(C)c[n+](C(C)C(=O)c2ccc(Cl)cc2)c1 (stereo unspecified)	inconclusive: 25.9 µM [cytotoxic, partial curve, poor fit]	–
O=C(CC1Sc2ccccc2NC1=O)OCc1cc(=O)oc2cc(O)ccc12 (stereo unspecified)	inconclusive: 20.6 µM [rising, partial curve, poor fit]	–
COc1cc(NC(C)CCCN)c2ncccc2c1 (stereo unspecified)	inactive	–
Cc1ccc(F)cc1NC(=O)N1CCCN(c2ccc(C(F)(F)F)cn2)CC1	inconclusive: 23.1 µM [cytotoxic, single point]	–
O=C(/C=C/[C@H]1O[C@@H](n2ccc(=O)[nH]c2=O)[C@H](O)[C@@H]1O)NCCc1c[nH]c2ccccc12	inactive	–
COc1ccc(CCNC(=O)COC(=O)c2cc(=O)c3ccccc3o2)cc1	inactive	–
O=S1(=O)CC(N2CCSCC2)CN1Cc1cn(Cc2cccc(C(F)(F)F)c2)nn1 (stereo unspecified)	inconclusive: 25.9 µM [cytotoxic, single point]	–
Cc1ccc(C)c(-n2nnc(C(=O)Nc3ccc(Br)cc3)c2C)c1	inconclusive: 29.1 µM [cytotoxic, single point]	–
CCCCC1(COC(=O)CCC(=O)O)C(=O)N(c2ccccc2)N(c2ccccc2)C1=O	inactive	–
CCN(CC)C(=O)c1[nH]cnc1C(=O)N[C@@H](CCCCNC(=O)OC(C)(C)C)C(=O)OC(C)(C)C	inconclusive: 23.1 µM [rising, partial curve, poor fit]	–
CC(=O)c1ccc(Nc2nc3ccccc3nc2NS(=O)(=O)c2cccs2)cc1	inconclusive: 20.6 µM [cytotoxic, single point]	–
FC(F)(F)c1cccc(N2CCN(C(=S)NC3CCCCC3)CC2)c1	inconclusive: 29.1 µM [cytotoxic, single point]	–
Cn1nnnc1Sc1ncnc2scc(-c3ccc([N+](=O)[O-])cc3)c12	inconclusive: 29.1 µM [cytotoxic, single point]	–
COCc1ccc(O)c2ncccc12	active: 14.6 µM	–

Exported bar-delimited: five of the compounds above.
SMILES | Potency | activity change, negative = cytotoxic
COc1ccc(-n2c(=O)c3c4c(sc3n(Cc3ccc(C(C)(C)C)cc3)c2=O)CCC4)c(OC)c1 | inactive | –
Cc1nc(SCC(=O)Nc2nc3ccccc3s2)c(C#N)c(C)c1C | inconclusive: 25.9 µM [cytotoxic, single point] | –
Cc1cc(C)c[n+](C(C)C(=O)c2ccc(Cl)cc2)c1 (stereo unspecified) | inconclusive: 25.9 µM [cytotoxic, partial curve, poor fit] | –
O=C(CC1Sc2ccccc2NC1=O)OCc1cc(=O)oc2cc(O)ccc12 (stereo unspecified) | inconclusive: 20.6 µM [rising, partial curve, poor fit] | –
COc1cc(NC(C)CCCN)c2ncccc2c1 (stereo unspecified) | inactive | –

(next part)

SMILES	Potency	activity change, negative = cytotoxic
CCc1cccc(C)c1NC(=O)c1cnn(-c2ccc(OC)cc2)c1C1CCN(C(=O)OC(C)(C)C)CC1	inconclusive: 29.1 µM [cytotoxic, single point]	–
COCCNC(=O)c1cc(-c2cccs2)on1	active: 20.6 µM	–
O=C(c1ccccc1Oc1ccccc1)N1CCN(c2ccccc2F)CC1	inconclusive: 29.1 µM [cytotoxic, single point]	–
Nc1nc(Sc2ccc([N+](=O)[O-])c3nonc23)c2[nH]cnc2n1	active: 2.06 µM	–
COc1ccc(NS(=O)(=O)c2ccc(C(=O)N3CCN(c4ccc(F)cc4)CC3)cc2)cc1	inconclusive: 29.1 µM [cytotoxic, single point]	–
Cc1ccc2c(C)c(C(=O)N3CCN(Cc4ccc5c(c4)OCO5)CC3)oc2c1C	inconclusive: 29.1 µM [cytotoxic, single point]	–
CS(=O)(=O)Nc1cccc(NC(=O)c2cccc3c(-c4ccc(F)c(F)c4)coc23)c1	inconclusive: 29.1 µM [cytotoxic, single point]	–
O=C(c1ccccc1)C1CCN(C(=O)c2c(F)cccc2F)CC1	inactive	–
CCCCOc1ccc(CSCCN=C(N)N)cc1	inactive	–
COc1ccc(C=NNC(=S)NC23CC4CC(CC(C4)C2)C3)cc1OC	inconclusive: 29.1 µM [cytotoxic, single point]	–
CCOC(=O)C1=CCN(S(=O)(=O)c2ccccc2C)C1c1cccc(Cl)c1 (stereo unspecified)	inconclusive: 29.1 µM [cytotoxic, single point]	–
CCOC(=O)c1ccccc1NC(=O)c1cnc(N2CCOCC2)c2ccccc12	inactive	–
Cc1cccc(NC(=O)[C@H](Cc2c[nH]c3ccccc23)NC(=O)[C@@H]2Cc3ccccc3CN2)c1	active: 5.8 µM	–
CN(C)CCN(C(=O)c1cccc(Cl)c1)c1nc2c(Cl)cccc2s1	inactive	–
O=C1/C(=C\c2cc(Br)cc(Br)c2O)SC(=S)N1Cc1ccccc1	inconclusive: 29.1 µM [cytotoxic, single point]	–
O=S(=O)(NCC1CCCO1)c1ccc(-c2ccc(S(=O)(=O)NCC3CCCO3)cc2)cc1 (stereo unspecified)	inconclusive: 0.231 µM [cytotoxic, full curve, poor fit]	–
COc1ccc(S(=O)(=O)Nc2ccccc2C)cc1	inconclusive: 29.1 µM [cytotoxic, single point]	–
O=C(NCC1CC1)c1cc2c(c(-c3cccc(-c4ccccc4F)c3)n1)[C@H](CCO)N(C(=O)CC1CC1)C2	inconclusive: 18.4 µM [cytotoxic, single point]	–
COc1cc(/C=C/c2cc[n+](C)c3ccccc23)cc(OC)c1OC	inconclusive: 20.6 µM [rising, partial curve]	–
COC(=O)c1cn(NC(=O)c2cc([N+](=O)[O-])ccc2F)c(=O)c2ccccc12	inconclusive: 9.2 µM [cytotoxic, partial curve, poor fit]	–
COc1ccc(N2CCN(C(=O)c3ccc(CS(=O)c4cccc(Cl)c4)o3)CC2)cc1 (stereo unspecified)	inconclusive: 20.6 µM [cytotoxic, single point]	–
CC(=O)Nc1nc2ccc(S(=O)(=O)N3CCCC3)cc2s1	inactive	–
Cc1ccc(C(=O)CSc2nnc(-c3ccco3)n2Cc2ccccc2)cc1	active: 20.6 µM	–
